PubChem BioAssay AID686943 – Drosophila RNAi Screening Center | 2013
The screen tested about 23,000 reagents; below is a random part of those that have a named target and a result. 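Extra replicates exist only for a retested subset of genes; insulin dose and duration not given; both raised and lowered dpERK matter.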 Further read-outs or replicates are left out here. No sequences are given here. Not stated in the record: the amount of reagent, the time to read-out.

- Test: 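Knockdowns that increase or decrease active ERK after insulin receptor stimulation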 (primary screen)
- System: Drosophila S2R+ haemocyte-like cells expressing YFP-tagged ERK (Rolled)
- Reagents: long dsRNA against Drosophila genes
- Treatment: insulin stimulation versus unstimulated cells; dose and duration not given
- Measured: 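Per-plate z-scores of phospho-ERK immunostaining normalised to YFP-tagged ERK, measured with and without insulin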
- Scale: replicate 1, z-score of dpERK with insulin and replicate 2, z-score of dpERK with insulin: higher = more active ERK per ERK-YFP after insulin; replicate 1, z-score of dpERK under basal conditions: higher = more basal active ERK per ERK-YFP

predicted target	dsRNA	replicate 1, z-score of dpERK with insulin	replicate 2, z-score of dpERK with insulin	replicate 1, z-score of dpERK under basal conditions
Ctr9	DRSC08562	1.98	1.59	-0.76
Syx7 (Syntaxin 7)	DRSC11763	-0.36	0.11	0.05
CG30008	DRSC21576	0.46	1.27	-1
LSm7 (Like Sm 7)	DRSC02251	1.71	0.75	0.07
CG31388	DRSC15254	0.01	0.64	-0.2
CG30383	DRSC05062	0.12	-0.41	0.42
Or65b (Odorant receptor 65b)	DRSC08809	0.38	-0.04	0.62
CG6013	DRSC15947	0.1	-0.2	-0.54
CG17375	DRSC02614	0.23	0.23	0
CG1889	DRSC18195	0.13	0.49	0.78
CG9119	DRSC08620	-1.41	-0.18	1.55
TwdlM (TweedleM)	DRSC15810	0.28	-1.37	-0.6
CG5292	DRSC15763	-0.23	0.89	-0.03
Mp20 (Muscle protein 20)	DRSC07474	0.02	0.35	0.13
CG40191	DRSC21041	-0.13	0.08	-2.47
CG5021	DRSC10469	-0.35	0.22	0.58
CG43193 (retired record)	DRSC20426	1.37	1.54	-0.06
CG12672	DRSC19482	-0.33	-1.09	-0.61
Ssl1 (Suppressor of stem-loop mutation)	DRSC11634	0.56	0.11	-0.58
l(2)34Fc (lethal (2) 34Fc)	DRSC01910	0.79	0.16	0
Cdc42 (Cell division cycle 42)	DRSC20228	-1.16	-2.65	1.53
CCHa2 (CCHamide-2)	DRSC14835	0.53	0.19	-0.93
mEFTs (mitochondrial translation elongation factor Ts)	DRSC02953	-0.52	-0.27	-0.34
CG7728	DRSC10907	-0.01	-0.32	-0.31
kraken	DRSC00824	-0.22	0.49	0.34

Next part; the last 6 above are carried over.
predicted target	dsRNA	replicate 1, z-score of dpERK with insulin	replicate 2, z-score of dpERK with insulin	replicate 1, z-score of dpERK under basal conditions
l(2)34Fc (lethal (2) 34Fc)	DRSC01910	0.79	0.16	0
Cdc42 (Cell division cycle 42)	DRSC20228	-1.16	-2.65	1.53
CCHa2 (CCHamide-2)	DRSC14835	0.53	0.19	-0.93
mEFTs (mitochondrial translation elongation factor Ts)	DRSC02953	-0.52	-0.27	-0.34
CG7728	DRSC10907	-0.01	-0.32	-0.31
kraken	DRSC00824	-0.22	0.49	0.34
CG9521	DRSC20196	-0.02	0.37	0.25
CG7139	DRSC11611	-0.54	-0.01	-0.08
Klp10A (Kinesin-like protein at 10A)	DRSC19601	-0.23	-1.35	0.55
Cep97 (Centrosomal protein 97kDa)	DRSC00637	-0.42	-0.43	-0.24
CG13654	DRSC14654	1.21	0	0.08
TrpA1 (Transient receptor potential cation channel A1)	DRSC10544	0.68	0.82	-0.51
CG14983	DRSC08441	1.78	1.13	-0.29
fd19B (forkhead domain 19B)	DRSC20688	0.57	0.51	-0.28
Mocs1 (Molybdenum cofactor synthesis 1)	DRSC11225	-0.07	0.47	0.28
side-II (sidestep II)	DRSC01427	0.4	0.29	0.47
side-II (sidestep II)	DRSC01429	-0.35	0.03	0.92
side-II (sidestep II)	DRSC01913	0.26	0	-0.27
side-II (sidestep II)	DRSC01932	0.05	0	-0.39
side-II (sidestep II)	DRSC02480	-0.02	0.34	1.24
side-II (sidestep II)	DRSC22508	-0.17	-0.12	-0.37
CG13408	DRSC13534	0.33	-0.66	-0.21
CG13408	DRSC14584	-0.13	-0.34	-0.41
Srpk79D (Serine-arginine protein kinase at 79D)	DRSC11668	0.14	0.1	0.34
Srpk79D (Serine-arginine protein kinase at 79D)	DRSC11856	-0.08	0.36	1.09
e(y)2b (enhancer of yellow 2b)	DRSC12556	1.25	1.2	1.1
CG13930	DRSC08399	-0.24	0.03	0.07
CG30183	DRSC04450	0.24	0.47	0.21
CG30183	DRSC04472	-0.01	0.26	0.31
CG31933	DRSC00457	1.05	1.36	1.62
Gbp2 (Growth-blocking peptide 2)	DRSC06069	0.34	0.89	1.72
CG7794	DRSC16313	-0.25	-0.02	0.49
CG3108	DRSC18280	0.63	1.44	0.02
zfh2 (Zn finger homeodomain 2)	DRSC17178	0.14	-0.46	1.02
Gorab (Golgin, RAB6 interacting)	DRSC10383	-0.18	-0.61	-0.68
CG3328	DRSC04357	-0.16	0.03	-0.26
Elp4 (Elongator complex protein 4)	DRSC02999	-5.77	-5.57	1.76
tsu (tsunagi)	DRSC07265	0.3	1.68	0.09
Naa20B (N(alpha)-acetyltransferase 20 B)	DRSC21442	-0.03	0.36	0.31
Grl36b (Gustatory receptor-like 36b)	DRSC01627	0.19	-0.32	-1.19
Rep (Rab escort protein)	DRSC07526	-0.9	-0.94	-0.84
Cpr65Ea (Cuticular protein 65Ea)	DRSC11027	0.32	-0.03	0.08
Gnpat (Glyceronephosphate O-acyltransferase)	DRSC16960	1.41	0.19	1.45
CG8326	DRSC20103	-1.58	-0.01	-0.55
Blos1	DRSC05970	0.28	0.59	0.92
bbg (big bang)	DRSC11077	1.13	0	-0.05
bbg (big bang)	DRSC11079	0.29	-0.74	-0.7
Rap1 (Rap1 GTPase)	DRSC08686	-1.29	-0.69	-0.35
Cpr97Eb (Cuticular protein 97Eb)	DRSC15123	0.49	-0.18	-0.9
baf (barrier to autointegration factor)	DRSC03051	0.44	1.25	0.75
CG16779	DRSC15153	-1.07	-1.22	0.03
rod (rough deal)	DRSC17047	1.11	0	1.32
CG13558	DRSC04196	-0.3	0.13	0.21
CG8960	DRSC08612	-0.49	-0.06	-1.13
